Values from PubChem BioAssay AID1053208 (Peter MacCallum Cancer Centre, 2014)
Aim: 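Find knock-downs that sensitise mouse osteosarcoma cells to doxorubicin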 (primary screen). System: mouse osteosarcoma cells, early-passage culture from an engineered mouse model of fibroblastic bone tumour. Knock-down reagent: siRNA pool against mouse genes, 40 nM. Duration: about 120 h (48 h before drug, then 72 h with drug). Challenge: doxorubicin 100 nM for 72 h, roughly 30-40% inhibitory dose. Measured: 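Viability read as ATP luminescence after 72 h of 100 nM doxorubicin or none, duplicate wells averaged, scaled to non-targeting siRNA, then expressed as robust z-scores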. Direction: viability z-score with doxorubicin and doxorubicin viability vs non-targeting: higher = more viable cells under doxorubicin; viability z-score without drug: higher = more viable cells with knock-down alone; z-score of drug to no-drug ratio: higher = less drug sensitisation by knock-down. Active means: 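a pool counts as active when its viability z-score with doxorubicin is -2 or below and its z-score without drug lies between -2 and 2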.
This is a random part of about 17,000 reagents. 788 of all reagents (4.7%) count as active. 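Calls rest on z-score classes alone; an extra cut-off of viability at most 70% of control was not applied to them.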 Unmarked entries are inactive. The numbers tell different reagents against one gene apart.

Gene	reagent	combined z-score class	viability z-score with doxorubicin	viability z-score without drug	z-score of drug to no-drug ratio	doxorubicin viability vs non-targeting
Pou3f1 (POU domain, class 3, transcription factor 1)	1	no change with or without drug	1.35	1.01	0.79	1.06
Anapc16 (anaphase promoting complex subunit 16)	1	no change with or without drug	0.79	0.34	0.67	1.01
Hoxa3 (homeobox A3)	1	no change with or without drug	-0.67	0.51	-0.9	0.88
Rplp0 (ribosomal protein lateral stalk subunit P0)	1	low cell count with and without drug	-3.6	-3.04	-1.91	0.62
Pcid2 (PCI domain containing 2)	1	no change with or without drug	0.9	0.51	0.67	1.02
Stau2 (staufen double-stranded RNA binding protein 2)	1	no change with or without drug	-1.12	1.18	-1.8	0.84
Map3k13 (mitogen-activated protein kinase kinase kinase 13)	1	high cell count with doxorubicin only	2.36	1.85	1.12	1.15
Nelfe (negative elongation factor complex member E, Rdbp)	1	low cell count with doxorubicin only (active)	-2.25	-0.34	-2.02	0.74
Hexa (hexosaminidase A)	1	no change with or without drug	0.11	0.67	-0.22	0.95
Slu7 (SLU7 splicing factor homolog (S. cerevisiae))	1	no change with or without drug	-1.12	0.67	-1.46	0.84
Pip4k2a (phosphatidylinositol-5-phosphate 4-kinase, type II, alpha)	1	no change with or without drug	-0.22	0.34	-0.34	0.92
Cntnap5b (contactin associated protein-like 5B)	1	no change with or without drug	0.45	0.67	0.11	0.98
Txnl1 (thioredoxin-like 1)	1	no change with or without drug	0.22	0.67	-0.11	0.96
Lrrtm4 (leucine rich repeat transmembrane neuronal 4)	1	no change with or without drug	-0.34	-0.84	0.34	0.91
Ppm1m (protein phosphatase 1M)	1	no change with or without drug	1.24	1.01	0.67	1.05
Nkd2 (naked cuticle 2)	1	no change with or without drug	1.12	0.34	1.01	1.04
H2-Q8 (histocompatibility 2, Q region locus 8)	1	high cell count without drug only	1.57	2.87	-0.22	1.08
Ncf2 (neutrophil cytosolic factor 2)	1	no change with or without drug	1.46	0.17	1.46	1.07
Mgarp (mitochondria localized glutamic acid rich protein)	1	no change with or without drug	0.34	-1.18	1.35	0.97
Liph (lipase H)	1	no change with or without drug	0.34	-0.51	0.79	0.97
Aoc2 (amine oxidase copper containing 2)	1	no change with or without drug	-0.67	-0.84	0	0.88
Ddb1 (damage specific DNA binding protein 1)	1	high cell count with doxorubicin only	2.59	-0.34	3.15	1.17
4933428P19Rik (RIKEN cDNA 4933428P19 gene)	1	no change with or without drug	-0.11	0.67	-0.45	0.93
Pabpc5 (poly(A) binding protein, cytoplasmic 5)	1	low cell count with doxorubicin only (active)	-2.02	-1.35	-1.24	0.76
Cldn7 (claudin 7)	1	low cell count with doxorubicin only (active)	-2.25	-1.52	-1.35	0.74
Dus3l (dihydrouridine synthase 3 like)	1	high cell count without drug only	1.91	2.53	0.34	1.11
Flot2 (flotillin 2)	1	no change with or without drug	1.35	1.18	0.67	1.06
Tmem100 (transmembrane protein 100)	1	high cell count without drug only	-1.12	2.36	-2.36	0.84
Zbtb38 (zinc finger and BTB domain containing 38)	1	no change with or without drug	0.34	0.34	0.22	0.97
Sptbn4 (spectrin beta, non-erythrocytic 4)	1	no change with or without drug	0.56	0.34	0.45	0.99
Tcf21 (transcription factor 21)	1	no change with or without drug	1.57	1.35	0.79	1.08
5031404N07	1	no change with or without drug	-0.67	1.35	-1.46	0.88
Rufy3 (RUN and FYVE domain containing 3)	1	no change with or without drug	-0.22	-0.67	0.34	0.92
Ncoa7 (nuclear receptor coactivator 7)	1	no change with or without drug	-0.45	0.84	-0.9	0.9
Il12rb1 (interleukin 12 receptor, beta 1)	1	high cell count with doxorubicin only	2.25	1.35	1.46	1.14
5330431K02Rik (RIKEN cDNA 5330431K02 gene)	1	no change with or without drug	0.9	0.34	0.79	1.02
Snx8 (sorting nexin 8)	1	no change with or without drug	-0.67	-1.18	0.22	0.88
D330038K10RIK	1	no change with or without drug	-1.12	-0.67	-0.67	0.84
Rhod (ras homolog family member D)	1	no change with or without drug	-0.45	0.17	-0.45	0.9
Sart1 (squamous cell carcinoma antigen recognized by T cells 1)	1	no change with or without drug	-1.01	-0.17	-0.9	0.85
Acsf2 (acyl-CoA synthetase family member 2)	1	no change with or without drug	1.12	0.51	0.9	1.04
Suds3 (suppressor of defective silencing 3 homolog (S. cerevisiae))	1	low cell count with doxorubicin only (active)	-3.82	-1.52	-3.15	0.6
Rab7b (RAB7B, member RAS oncogene family)	1	low cell count with doxorubicin only (active)	-2.7	0.84	-3.15	0.7
Mybph (myosin binding protein H)	1	no change with or without drug	0.34	-0.84	1.12	0.97
Cnot7 (CCR4-NOT transcription complex, subunit 7)	1	no change with or without drug	-1.01	-0.51	-0.67	0.85
Mtmr11 (myotubularin related protein 11)	1	no change with or without drug	-1.57	-0.84	-1.01	0.8
Mme (membrane metallo endopeptidase)	1	no change with or without drug	0.22	0.17	0.22	0.96
Ctnnbl1 (catenin, beta like 1)	1	no change with or without drug	1.46	-0.51	2.02	1.07
Mat2b	1	no change with or without drug	-1.35	0.17	-1.46	0.82
Lpcat1 (lysophosphatidylcholine acyltransferase 1)	1	no change with or without drug	-1.57	-0.84	-1.01	0.8
Depp1 (DEPP1 autophagy regulator)	1	no change with or without drug	0.9	1.01	0.34	1.02
Tmem229a (transmembrane protein 229A)	1	no change with or without drug	0.45	1.35	-0.34	0.98
S1pr4 (sphingosine-1-phosphate receptor 4)	1	no change with or without drug	-0.67	0.84	-1.12	0.88
Zfp92 (zinc finger protein 92)	1	no change with or without drug	0.9	0.67	0.56	1.02
Aoc3 (amine oxidase, copper containing 3)	1	no change with or without drug	-0.9	0	-0.79	0.86
Polr2j (polymerase (RNA) II (DNA directed) polypeptide J)	1	low cell count with and without drug	-3.37	-2.19	-2.25	0.64
Fmn1 (formin 1)	1	no change with or without drug	0.9	0.84	0.45	1.02
St6gal1 (beta galactoside alpha 2,6 sialyltransferase 1)	1	no change with or without drug	-0.67	-0.67	-0.11	0.88
Aadacl4fm1 (AADACL4 family member 1)	1	low cell count with doxorubicin only (active)	-2.02	-0.84	-1.57	0.76
Osbpl10 (oxysterol binding protein-like 10)	1	no change with or without drug	-1.35	-0.51	-1.01	0.82
Osbpl10 (oxysterol binding protein-like 10)	2	no change with or without drug	-1.57	-1.18	-0.79	0.8
Ccdc186 (coiled-coil domain containing 186)	1	no change with or without drug	0.45	0.51	0.22	0.98
Rps6kb2 (ribosomal protein S6 kinase B2)	1	no change with or without drug	1.57	-1.18	2.81	1.08

Active calls (from the list above):
Gene	reagent	combined z-score class	viability z-score with doxorubicin	viability z-score without drug	z-score of drug to no-drug ratio	doxorubicin viability vs non-targeting
Nelfe (negative elongation factor complex member E, Rdbp)	1	low cell count with doxorubicin only (active)	-2.25	-0.34	-2.02	0.74
Pabpc5 (poly(A) binding protein, cytoplasmic 5)	1	low cell count with doxorubicin only (active)	-2.02	-1.35	-1.24	0.76
Cldn7 (claudin 7)	1	low cell count with doxorubicin only (active)	-2.25	-1.52	-1.35	0.74
Suds3 (suppressor of defective silencing 3 homolog (S. cerevisiae))	1	low cell count with doxorubicin only (active)	-3.82	-1.52	-3.15	0.6
Rab7b (RAB7B, member RAS oncogene family)	1	low cell count with doxorubicin only (active)	-2.7	0.84	-3.15	0.7
Aadacl4fm1 (AADACL4 family member 1)	1	low cell count with doxorubicin only (active)	-2.02	-0.84	-1.57	0.76
